Measurements published in PubChem BioAssay AID493014 (National Center for Advancing Translational Sciences (NCATS), 2011).
Some of the results follow. The main result of the screen is listed elsewhere. These columns were measured beside it and carry no call. The list favours compounds with an active or inconclusive main result. Potencies come from curve fits of mixed quality, noted in brackets.

Assay: qHTS Assay to Find Inhibitors of Chronic Active B-Cell Receptor Signaling
Details: ABC-DLBCL IkBa-CBG/CBR reporter, luminescence ratio (green luciferase fused to IkBa over red control in TMD8 lymphoma cells), 4 h
How it was run: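 TMD8 human ABC-DLBCL cells with doxycycline-inducible IκBα–green luciferase fusion and unfused red luciferase, in 0.5% FBS medium; compounds up to 46 uM, 4 h at 37C. Green/red luminescence ratio, filter-overlap corrected, fitted to concentration-response curves.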

[1] = measured here: CBR red luminescence, cell number
[2] = measured here: IkBa-CBG green luminescence

COc1ccc(S(=O)(=O)Nc2cc(Sc3ncn[nH]3)c(O)c3ccccc23)cc1
AC50 [1]: 2.59 µM [falling, full curve] | AC50 [2]: 5.17 µM [rising, full curve, poor fit]

CC(NC(=O)CCCN1C(=O)c2ccccc2C1=O)c1ccc2c(c1)CCCC2 (configuration not stated)
AC50 [1]: 2.31 µM [rising, full curve, poor fit]

O=C(NCCc1ccccc1)c1cc2ccccc2oc1=O
AC50 [1]: 6.31 µM [falling, full curve]

COc1ccc(/C=N/NC(=S)Nc2ccccc2)cc1COc1ccc(F)cc1
AC50 [1]: 9.2 µM [rising, partial curve, poor fit]

N#CC1=C(SCC(=O)NC23CC4CC(CC(C4)C2)C3)NC(=O)C(C#N)C12CCCCC2 (configuration not stated)
AC50 [1]: 20.6 µM [falling, single point]

COc1ccc(C2NC(=S)N3C(c4ccc(OC)cc4)NC(=S)N23)cc1 (configuration not stated)
AC50 [1]: 0.00411 µM [rising, full curve, poor fit]

O=S(=O)(N/N=C\c1cccnc1)c1ccccc1
AC50 [1]: 29.1 µM [falling, single point]

Cc1ccn2c(Nc3ccccc3)c(-c3ccccn3)nc2c1
AC50 [1]: 35.5 µM [falling, single point]

c1ccc(CNc2ncnc3c2cnn3Cc2ccccc2)cc1
AC50 [1]: 9.2 µM [rising, partial curve, poor fit]

COc1ccc(/C=N/Nc2ccc(C(=O)O)cc2)cc1OC
AC50 [1]: 0.0178 µM [falling, partial curve, poor fit]

CCOC(=O)c1c(C)[nH]c(C(=O)OCC(=O)Nc2ccc(OC)c(Cl)c2)c1C
AC50 [1]: 2.31 µM [rising, partial curve, poor fit]

Nc1ccc(Sc2nnnn2-c2ccccc2)c(Cl)c1
AC50 [1]: 29.1 µM [falling, single point]

COC(=O)c1ccc(NC(=O)CN(c2ccc(C)cc2)S(=O)(=O)c2c(C)nn(C)c2C)cc1
AC50 [1]: 0.411 µM [falling, partial curve, poor fit]

CC(C)(C)NC(=O)C(=O)NNC(=O)c1cccc(Br)c1
AC50 [1]: 35.5 µM [falling, single point]

Cc1ccc(C(=O)Nc2cccc(N(C)S(C)(=O)=O)c2)cc1S(=O)(=O)Nc1ccccc1
AC50 [1]: 25.1 µM [falling, single point]

CCOC(=O)C1CCN(C(=O)c2ccc(N3CCOCC3)c([N+](=O)[O-])c2)CC1
AC50 [1]: 1.3 µM [falling, partial curve, poor fit]

Cc1ccccc1NC(=S)c1ccc2ccccc2n1
AC50 [1]: 35.5 µM [rising, single point] | AC50 [2]: 35.5 µM [falling, partial curve, poor fit]

O=C(NC1CCCCCC1)c1cccs1
AC50 [1]: 10 µM [falling, partial curve, poor fit]

CCCN1Cc2cccc(C(=O)NCCc3ccccc3)c2C1=O
AC50 [1]: 3.55 µM [rising, partial curve, poor fit]

COc1ccccc1N1CCN(C(=O)C(=O)N/N=C/c2cccc(O)c2)CC1
AC50 [1]: 8.91 µM [rising, partial curve, poor fit]

COc1ccc(NC(=O)c2c(NCc3cccs3)sc3c2CCCC3)c(OC)c1
AC50 [1]: 7.94 µM [rising, partial curve, poor fit]

COc1cccc(C(=O)NC(=S)Nc2cccnc2)c1
AC50 [1]: 7.31 µM [falling, partial curve]

Cc1ccc2nc(NC(=S)NC(=O)c3cccs3)sc2c1
AC50 [1]: 1.12 µM [falling, partial curve, poor fit]

CCOP(=O)(OCC)c1nc(-c2cccc3ccccc23)oc1NCc1ccc(OC)cc1
AC50 [1]: 35.5 µM [falling, partial curve, poor fit]

Cc1ccc(C2CC(c3cccs3)=NN2C(=O)CSC2=NCCS2)cc1 (configuration not stated)
AC50 [1]: 35.5 µM [falling, single point]

CCCNC(=O)Cn1c(=O)/c(=C\c2ccc(-c3ccc([N+](=O)[O-])cc3)o2)s/c1=C\C(=O)C(C)(C)C
AC50 [1]: 0.13 µM [rising, full curve, poor fit]

CC(=O)OCCCNc1cc(SCc2ccco2)c2nonc2c1[N+](=O)[O-]
AC50 [1]: 23.1 µM [falling, single point]

O=C(/C=C/c1ccccc1)Oc1coc(CSc2ncccn2)cc1=O
AC50 [1]: 7.94 µM [rising, partial curve, poor fit]

COc1ccc2[nH]c(C(=O)Nc3ccccc3Cl)cc2c1
AC50 [1]: 22.4 µM [falling, single point]

Cc1ccc(C)c(NC(=O)CN(C)C(=O)c2cccc(Oc3ccccc3)c2)c1
AC50 [1]: 5.17 µM [falling, single point]

O=C(O)Cc1sc(-c2cccnc2)nc1-c1ccc(Br)cc1
AC50 [1]: 25.1 µM [falling, single point]

CCNC(=S)N(CCc1c(C)[nH]c2ccc(Cl)cc12)Cc1ccco1
AC50 [1]: 35.5 µM [falling, single point]

O=C(COC(=O)c1ccc([N+](=O)[O-])o1)NC1CCCC1
AC50 [1]: 29.1 µM [rising, single point]

Cc1nnc2ccc(-c3cccc(NS(=O)(=O)c4cc(F)ccc4F)c3)nn12
AC50 [1]: 0.164 µM [rising, full curve, poor fit]

Nc1n[nH]c(N)c1N=Nc1ccc(Cl)cc1
AC50 [1]: 0.92 µM [rising, full curve, poor fit]

CC(C(=O)N1CCN(c2ccc([N+](=O)[O-])cc2)CC1)N1C(=O)C2CC=CCC2C1=O (configuration not stated)
AC50 [1]: 0.708 µM [rising, full curve, poor fit]

COCCN(Cc1cc2cc3c(cc2nc1Cl)OCO3)C(=O)Nc1ccc(F)cc1
AC50 [1]: 29.1 µM [rising, single point]

CNC(=O)c1ccc(-c2ccccc2)s1
AC50 [1]: 28.2 µM [falling, single point]

CCCCSc1nnc(-c2ccc(C)cc2)c2ccccc12
AC50 [1]: 29.1 µM [rising, single point]

Nc1ncc2c(n1)-c1cc(Cl)ccc1SC2
AC50 [1]: 5.01 µM [falling, partial curve, poor fit]

O=S(=O)(c1ccc(Br)cc1)N1CCCN(Cc2cccc(F)c2)CC1
AC50 [1]: 32.6 µM [falling, single point]

C/C=C/C(=O)NCCc1ccc(OC)c(OC)c1
AC50 [1]: 35.5 µM [rising, single point]

Clc1ccccc1Cn1nc(-c2ccccc2)nc1-c1ccccc1
AC50 [1]: 18.4 µM [rising, partial curve, poor fit]

Cc1ccc(COC(=O)c2cc([N+](=O)[O-])ccc2N2CCOCC2)cc1
AC50 [1]: 11.2 µM [rising, partial curve] | AC50 [2]: 10 µM [falling, partial curve]

CNC(=O)c1ccccc1Nc1ccc(SC(F)F)cc1
AC50 [1]: 7.08 µM [rising, partial curve]

Cc1ccsc1C(=O)OCc1nnc(-c2ccccc2)o1
AC50 [1]: 11.6 µM [falling, partial curve, poor fit]

CCn1c(COc2cccc(C)c2)nnc1SCC(=O)Nc1cccc(C(=O)OC)c1
AC50 [1]: 25.1 µM [falling, single point]

O=C(Cc1cccc2ccccc12)N1CC[C@@]2(O)CCCC[C@H]2C1
AC50 [1]: 11.2 µM [falling, partial curve]

N#Cc1ccc(C(=O)Nc2nnc(-c3ccco3)o2)cc1
AC50 [1]: 7.94 µM [falling, partial curve, poor fit]

Fc1cccc(Cl)c1-c1nnc2ccc(N3CCOCC3)nn12
AC50 [1]: 3.26 µM [falling, partial curve, poor fit]

CCOc1ccccc1NC(=O)CSc1nnnn1-c1ccc(C(=O)OC)cc1
AC50 [1]: 7.08 µM [rising, partial curve, poor fit]

Cc1cccc(C(=O)NC(C(=O)Nc2nc(-c3ccccn3)cs2)C(C)C)c1 (configuration not stated)
AC50 [1]: 15.8 µM [falling, partial curve, poor fit]

CSCC[C@H](NC(=O)OC(C)(C)C)C(=O)N/N=C/c1cccc2cccnc12
AC50 [1]: 6.31 µM [falling, partial curve]

COc1ccc(Nc2nccc(-c3ccc(C#N)cc3)n2)cc1
AC50 [1]: 12.6 µM [falling, single point]

NC(=O)c1ccc(CN2CCc3ccccc3C2)cc1
AC50 [1]: 6.31 µM [rising, single point]

Cc1c(C#N)c2ccccc2n1C
AC50 [1]: 5.01 µM [rising, partial curve, poor fit]

O=C(Cc1ccccc1)N(Cc1cccnc1)c1nc2c(Cl)cccc2s1
AC50 [1]: 11.2 µM [falling, partial curve, poor fit] | AC50 [2]: 12.6 µM [rising, single point]

O=C(NN=C1CCCC1)c1ccccc1OCCOc1ccccc1
AC50 [1]: 7.94 µM [falling, partial curve]

O=C(CN1CCN(c2ccccn2)CC1)Nc1cccc(F)c1
AC50 [1]: 11.2 µM [rising, partial curve]

Cn1cc(/C=C(\NC(=O)c2ccccc2)C(=O)NCCN2CCOCC2)c2ccccc21
AC50 [1]: 11.2 µM [falling, single point]

CCOC(=O)c1c(C)c(C(=O)NCC2CCCO2)c(C)n1CC (configuration not stated)
AC50 [1]: 0.58 µM [falling, full curve, poor fit]

Cc1sc2ncnc(SCC(=O)Nc3ncccc3O)c2c1C
AC50 [1]: 16.4 µM [falling, partial curve, poor fit]

Cc1ccc(C(=O)N=c2sccn2C)cc1S(=O)(=O)N1CCOCC1
AC50 [1]: 8.2 µM [falling, partial curve]
